The text below walks through data of PMC12377093.

This experiment deals with T1, Myc-tagged porcine IKKε (pcDNA-Myc-IKKε) (porcine) (UniProt M9MMN5).
T1 sequence: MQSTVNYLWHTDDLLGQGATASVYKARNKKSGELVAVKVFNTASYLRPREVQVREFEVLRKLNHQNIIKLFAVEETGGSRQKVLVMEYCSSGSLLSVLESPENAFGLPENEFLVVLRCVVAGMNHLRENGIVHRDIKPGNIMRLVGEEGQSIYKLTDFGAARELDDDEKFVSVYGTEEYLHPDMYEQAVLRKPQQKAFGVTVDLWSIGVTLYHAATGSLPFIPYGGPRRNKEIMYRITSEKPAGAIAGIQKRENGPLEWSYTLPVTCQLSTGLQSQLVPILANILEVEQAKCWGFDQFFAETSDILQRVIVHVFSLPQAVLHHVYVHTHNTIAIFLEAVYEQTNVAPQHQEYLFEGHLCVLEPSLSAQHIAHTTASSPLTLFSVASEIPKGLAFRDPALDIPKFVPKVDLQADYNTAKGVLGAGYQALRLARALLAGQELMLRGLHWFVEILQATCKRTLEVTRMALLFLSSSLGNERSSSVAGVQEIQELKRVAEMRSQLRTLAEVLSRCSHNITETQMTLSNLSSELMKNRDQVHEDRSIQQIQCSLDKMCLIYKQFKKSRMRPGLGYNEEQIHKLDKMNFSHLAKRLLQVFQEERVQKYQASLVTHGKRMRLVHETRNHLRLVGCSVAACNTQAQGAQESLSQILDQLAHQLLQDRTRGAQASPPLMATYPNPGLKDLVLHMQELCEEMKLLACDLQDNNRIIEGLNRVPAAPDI
Kind of experiment: co-IP.

These are yes or no findings as the source states them, for the method shown. Binding seen in cells or lysates may run through a third protein. Sequences can lack the tags named with a protein.

In the case of “GFP-tagged PRRSV non-structural protein 5 (pEGFP-N1-Nsp5) (PRRSV-2, strain XJ17-5)”, the binding entry was “no binding”.
